This is an account of results in publication PMC6115913.

Protein sequences, listed by entry. Tags and fused reporters are not part of them.
UniProt O60674: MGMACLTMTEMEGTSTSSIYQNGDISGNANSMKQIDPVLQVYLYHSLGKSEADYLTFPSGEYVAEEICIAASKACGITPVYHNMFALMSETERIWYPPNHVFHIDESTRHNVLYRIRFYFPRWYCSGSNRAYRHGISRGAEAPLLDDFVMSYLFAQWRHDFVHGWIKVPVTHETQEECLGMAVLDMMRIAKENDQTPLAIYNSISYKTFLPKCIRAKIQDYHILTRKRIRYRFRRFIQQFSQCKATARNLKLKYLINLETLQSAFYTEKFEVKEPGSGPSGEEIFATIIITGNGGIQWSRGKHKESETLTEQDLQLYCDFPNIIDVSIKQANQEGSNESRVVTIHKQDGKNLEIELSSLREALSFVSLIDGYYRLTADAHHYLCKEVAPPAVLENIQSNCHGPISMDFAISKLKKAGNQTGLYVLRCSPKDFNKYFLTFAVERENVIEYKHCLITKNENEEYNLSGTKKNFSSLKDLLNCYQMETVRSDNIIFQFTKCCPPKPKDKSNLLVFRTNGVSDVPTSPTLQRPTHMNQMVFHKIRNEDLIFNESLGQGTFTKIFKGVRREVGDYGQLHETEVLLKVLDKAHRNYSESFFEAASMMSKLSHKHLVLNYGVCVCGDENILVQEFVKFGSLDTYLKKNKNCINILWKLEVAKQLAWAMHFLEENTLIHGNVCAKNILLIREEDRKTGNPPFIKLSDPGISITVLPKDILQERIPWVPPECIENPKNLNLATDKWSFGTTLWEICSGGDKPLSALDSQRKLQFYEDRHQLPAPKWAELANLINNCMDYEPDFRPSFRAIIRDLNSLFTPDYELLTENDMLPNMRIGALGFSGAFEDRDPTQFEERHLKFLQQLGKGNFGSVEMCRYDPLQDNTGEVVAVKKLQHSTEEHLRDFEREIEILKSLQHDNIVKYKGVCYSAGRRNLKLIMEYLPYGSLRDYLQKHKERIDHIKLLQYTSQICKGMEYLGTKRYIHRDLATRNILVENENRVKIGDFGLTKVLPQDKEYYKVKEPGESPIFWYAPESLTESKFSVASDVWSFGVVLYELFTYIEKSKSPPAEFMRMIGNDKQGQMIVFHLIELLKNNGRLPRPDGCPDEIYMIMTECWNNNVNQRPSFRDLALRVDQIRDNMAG
UniProt P40763: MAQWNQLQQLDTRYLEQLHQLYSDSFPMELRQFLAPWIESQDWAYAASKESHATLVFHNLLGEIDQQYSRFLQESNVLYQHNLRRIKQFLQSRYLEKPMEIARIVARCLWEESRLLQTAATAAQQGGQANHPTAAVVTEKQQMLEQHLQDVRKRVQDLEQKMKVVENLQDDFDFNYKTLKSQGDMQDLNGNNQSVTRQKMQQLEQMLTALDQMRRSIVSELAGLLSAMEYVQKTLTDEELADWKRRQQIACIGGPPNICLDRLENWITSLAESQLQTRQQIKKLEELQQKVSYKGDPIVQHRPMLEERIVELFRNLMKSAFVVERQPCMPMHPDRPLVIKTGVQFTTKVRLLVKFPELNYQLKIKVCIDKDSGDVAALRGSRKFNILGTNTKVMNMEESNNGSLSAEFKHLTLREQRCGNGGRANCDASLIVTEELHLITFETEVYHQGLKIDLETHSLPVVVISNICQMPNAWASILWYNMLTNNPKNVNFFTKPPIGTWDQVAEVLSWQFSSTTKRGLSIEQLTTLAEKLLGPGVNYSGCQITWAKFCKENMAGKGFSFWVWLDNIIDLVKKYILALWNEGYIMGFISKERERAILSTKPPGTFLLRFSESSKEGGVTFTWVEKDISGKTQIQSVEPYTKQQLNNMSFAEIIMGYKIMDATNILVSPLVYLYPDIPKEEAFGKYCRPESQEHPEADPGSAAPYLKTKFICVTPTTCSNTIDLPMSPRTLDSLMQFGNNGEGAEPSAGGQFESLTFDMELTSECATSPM

Assay [1] addresses T1, Flag-tagged CEP55 (human) (UniProt Q53EZ4).
T1 sequence: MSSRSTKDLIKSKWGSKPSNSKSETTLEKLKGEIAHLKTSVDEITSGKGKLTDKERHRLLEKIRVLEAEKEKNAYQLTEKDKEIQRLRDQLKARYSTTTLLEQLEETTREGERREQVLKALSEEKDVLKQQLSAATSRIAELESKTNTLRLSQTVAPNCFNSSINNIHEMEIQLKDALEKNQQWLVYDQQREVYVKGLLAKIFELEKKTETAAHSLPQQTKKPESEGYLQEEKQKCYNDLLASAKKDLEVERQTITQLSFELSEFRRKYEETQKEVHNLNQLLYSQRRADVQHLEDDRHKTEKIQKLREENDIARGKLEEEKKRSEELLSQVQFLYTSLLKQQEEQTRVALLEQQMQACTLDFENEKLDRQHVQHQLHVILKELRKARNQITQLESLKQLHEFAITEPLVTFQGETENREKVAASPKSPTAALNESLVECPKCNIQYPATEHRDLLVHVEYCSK
The experiment in a line: co-IP; HepG2 cells with vector or Flag-CEP55; lysate (1% Triton X-100, 40 mM Hepes pH 7.5, 120 mM NaCl, 1 mM EDTA), 1 mg total protein; immunoprecipitation with anti-Flag mouse monoclonal antibody at 4 °C overnight, protein G-agarose; immunoblot.

Assay [2] concerns the target JAK2 (endogenous) (human (endogenous in HepG2 and Hep3B)) (UniProt O60674). In words: co-IP; Hep3B cells with vector or Flag-CEP55; lysate (1% Triton X-100, 40 mM Hepes pH 7.5, 120 mM NaCl, 1 mM EDTA); immunoprecipitation with anti-JAK2 mouse monoclonal antibody at 4 °C overnight, protein G-agarose; immunoblot.
The target is the same in assay [3]. In words: co-IP; endogenous proteins in HepG2 cells; immunoprecipitation with CEP55 antibody, JAK2 antibody or mouse IgG at 4 °C overnight, protein G-agarose; immunoblot.

No constants are given. Whether binding was seen depends on the method and setting. In cells and extracts the contact can be indirect. Some results given as binding are weak or reduced against the parent protein; the word gives no strength. For part of these data: Sequences can lack the tags named with a protein.

Regarding “STAT3 (endogenous) (from UniProt P40763 1-770)”, the binding entry in assay [1] was “no binding”.

B1: Flag-tagged CEP55 (protein, UniProt Q53EZ4 1-464)
chain: MSSRSTKDLIKSKWGSKPSNSKSETTLEKLKGEIAHLKTSVDEITSGKGKLTDKERHRLLEKIRVLEAEKEKNAYQLTEKDKEIQRLRDQLKARYSTTTLLEQLEETTREGERREQVLKALSEEKDVLKQQLSAATSRIAELESKTNTLRLSQTVAPNCFNSSINNIHEMEIQLKDALEKNQQWLVYDQQREVYVKGLLAKIFELEKKTETAAHSLPQQTKKPESEGYLQEEKQKCYNDLLASAKKDLEVERQTITQLSFELSEFRRKYEETQKEVHNLNQLLYSQRRADVQHLEDDRHKTEKIQKLREENDIARGKLEEEKKRSEELLSQVQFLYTSLLKQQEEQTRVALLEQQMQACTLDFENEKLDRQHVQHQLHVILKELRKARNQITQLESLKQLHEFAITEPLVTFQGETENREKVAASPKSPTAALNESLVECPKCNIQYPATEHRDLLVHVEYCSK
For the molecule B1, in assay [2], the binding entry was “binds”.

B2: CEP55 (endogenous) (protein, UniProt Q53EZ4 1-464)
chain: MSSRSTKDLIKSKWGSKPSNSKSETTLEKLKGEIAHLKTSVDEITSGKGKLTDKERHRLLEKIRVLEAEKEKNAYQLTEKDKEIQRLRDQLKARYSTTTLLEQLEETTREGERREQVLKALSEEKDVLKQQLSAATSRIAELESKTNTLRLSQTVAPNCFNSSINNIHEMEIQLKDALEKNQQWLVYDQQREVYVKGLLAKIFELEKKTETAAHSLPQQTKKPESEGYLQEEKQKCYNDLLASAKKDLEVERQTITQLSFELSEFRRKYEETQKEVHNLNQLLYSQRRADVQHLEDDRHKTEKIQKLREENDIARGKLEEEKKRSEELLSQVQFLYTSLLKQQEEQTRVALLEQQMQACTLDFENEKLDRQHVQHQLHVILKELRKARNQITQLESLKQLHEFAITEPLVTFQGETENREKVAASPKSPTAALNESLVECPKCNIQYPATEHRDLLVHVEYCSK
Take B2: the binding result in assay [3] was “binds”.
